{"source": "paper PMC3320604", "about": "“A Genome-Wide Screen for Genetic Variants That Modify the Recruitment of REST to Its Target Genes”", "molecular_target": "T1, HisMBP-REST/DBD (UniProt Q13127)", "T1 sequence (looked up, limits assumed)": "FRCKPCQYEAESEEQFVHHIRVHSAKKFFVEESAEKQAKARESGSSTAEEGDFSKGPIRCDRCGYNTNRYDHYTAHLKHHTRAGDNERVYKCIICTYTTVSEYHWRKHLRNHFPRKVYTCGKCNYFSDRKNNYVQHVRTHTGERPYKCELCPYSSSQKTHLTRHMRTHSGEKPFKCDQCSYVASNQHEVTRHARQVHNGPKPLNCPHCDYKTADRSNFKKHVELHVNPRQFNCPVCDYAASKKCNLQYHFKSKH", "assay": "competition EMSA", "conditions": "competition against Cy5 Scn2a2 RE1 probe; 10 mM Tris-HCl pH 8.0, 100 mM KCl, 2 mM 2-mercaptoethanol, ZnCl2 (printed '50 M', unit prefix lost), 10% glycerol, 0.1% NP-40, 0.1 mg/ml BSA; 0.5 nM probe; low values mean tight binding; recombinant protein; protein details: His-MBP; label: unlabelled competitor; letters put together from the description", "note": "Construct, isoform or probe ends are uncertain for at least one entry. Where a protein sequence is shown, tags need not be part of it."}
{"sequence": "GAGCGCCGCCGGCAGCACCATGGACAGCGCCGGGTTGGGC (double strand) [RE1 control N1_MAJ]", "values": [{"measurement": "binding signal (fraction of probe bound)", "result": 0.377}]}
{"sequence": "AAGAGCCCGTTTCAGCACCATGGACAAAGCACCCTCCGAC (double strand) [RE1 control N4_MIN]", "values": [{"measurement": "binding signal (fraction of probe bound)", "result": 0.463}]}
{"sequence": "GGAGCGTTGCTTCAGCACCACGGAGAGATCATGACTGCAG (double strand) [RE1 control N3_MAJ]", "values": [{"measurement": "binding signal (fraction of probe bound)", "result": 0.531}]}
{"sequence": "AAGAGCCCGTTTCAGCACCATGGACAAAGCACCCCCCGAC (double strand) [RE1 control N4_MAJ]", "values": [{"measurement": "binding signal (fraction of probe bound)", "result": 0.495}]}
{"sequence": "GGAGCGTTGCTTCAGCACCACGGAGAGATCATCACTGCAG (double strand) [RE1 control N3_MIN]", "values": [{"measurement": "binding signal (fraction of probe bound)", "result": 0.512}]}
{"sequence": "AAGGCAGGGGTTCAGCACCACGGACAGCGACCTGCGGGTG (double strand) [RE1 control N2_MIN]", "values": [{"measurement": "binding signal (fraction of probe bound)", "result": 0.148}]}
{"sequence": "AAGGCAGGAGTTCAGCACCACGGACAGCGACCTGCGGGTG (double strand) [RE1 control N2_MAJ]", "values": [{"measurement": "binding signal (fraction of probe bound)", "result": 0.194}]}
{"sequence": "GAGCGCAGCCGGCAGCACCATGGACAGCGCCGGGTTGGGC (double strand) [RE1 control N1_MIN]", "values": [{"measurement": "binding signal (fraction of probe bound)", "result": 0.345}]}
